For 63 molecules, AC50 results are on record in PubChem BioAssay AID493014 (National Center for Advancing Translational Sciences (NCATS), 2011).

The other results are listed elsewhere or left out. These are further read-outs of the screen, such as a control signal, another cell line or another target. No call is given for them. The list favours compounds with an active or inconclusive main result. Potencies come from curve fits of mixed quality, noted in brackets.

This experiment is described as follows: qHTS Assay to Find Inhibitors of Chronic Active B-Cell Receptor Signaling. The note with it: ABC-DLBCL IkBa-CBG/CBR reporter, luminescence ratio (green luciferase fused to IkBa over red control in TMD8 lymphoma cells), 4 h. Summed up:
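Concentration-response series (up to 46 uM) were applied to TMD8 dual-reporter cells for 4 h at 37C with doxycycline. Green/red ratio, after filter-overlap correction, defined %Activity; red signal alone was normalised to basal cells and zero luminescence.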

Setting [1] is: measured here: CBR red luminescence, cell number.
Setting [2] is: measured here: IkBa-CBG green luminescence.

On to `Cc1c(C(=O)NC(Cc2ccccc2)c2nc3ccccc3[nH]2)cccc1[N+](=O)[O-]` (stereo unspecified), for which, under setting [1], the AC50 is 29.1 µM [falling, single point].

As for `CCOc1ccccc1OCCC(=O)Nc1ccc2c(c1)OCO2`, the AC50 under setting [2] is 5.17 µM [falling, partial curve, poor fit].

As for `O=c1oc2ccccc2cc1NCc1ccccc1O`, the AC50 under setting [1] is 13 µM [falling, partial curve]. Regarding `O=C1NC(=S)N/C1=C/c1ccc2ccccc2c1`, under setting [1], the AC50 was 0.398 µM [rising, full curve].

With `COc1cc(C(=O)NNC(=O)C2CC=CCC2C(=O)O)cc(OC)c1OC` (stereo unspecified), the AC50 under setting [1] was 5.17 µM [rising, full curve] and the AC50 under setting [2] is 11.6 µM [falling, partial curve].

As to `O=C(NCC1CCCO1)c1cc(-c2ccccc2)on1` (stereo unspecified), under setting [1], the AC50 is 8.2 µM [falling, partial curve].

With `CCOC(=O)N1CCC(NC(=O)CC(NS(=O)(=O)c2ccc(Cl)cc2)c2ccco2)CC1` (stereo unspecified), the AC50 under setting [1] was 0.731 µM [falling, partial curve, poor fit]. Take `Cc1ccc(NC(=O)Cn2cc(C(=O)c3ccco3)c3ccccc32)c(C)c1`: the AC50 under setting [1] is 6.31 µM [rising, single point]. As to `O=C(O)c1ccc(C(=O)Nc2ccc(F)cc2)cc1`, under setting [1], the half-maximal activity concentration (AC50) is 14.6 µM [falling, partial curve]. On to `O=C(Nc1cccc(Cl)c1)c1cc(S(=O)(=O)N2CCCc3ccccc32)ccc1F`, for which the AC50 under setting [1] is 3.98 µM [falling, full curve, poor fit].

As for `COc1ccc(C2c3c(ncn(CCN4CCOCC4)c3=N)Oc3ccc4ccccc4c32)cc1` (stereo unspecified), the AC50 under setting [1] is 1.64 µM [falling, partial curve, poor fit].

Regarding `O=C(CSc1ccccc1C(=O)O)c1ccc(Cl)cc1`, the concentration at half-maximal activity (AC50) under setting [1] was 3.16 µM [rising, partial curve, poor fit]. Turning to `COc1ccc(CCn2c(N)c(S(=O)(=O)c3cccs3)c3nc4ccccc4nc32)cc1OC`, the AC50 under setting [1] was 11.2 µM [falling, partial curve].

Regarding `C=CCS(=O)(=O)N1CCCC(C(=O)c2cccc(Cl)c2)C1` (stereo unspecified), under setting [1], the AC50 is 11.2 µM [rising, partial curve, poor fit]. `COC(=O)c1ccc(C23CC4(C2)[C@H](CN(Cc2ccc(-c5ccccc5)cc2)[C@@H]4c2ccccc2)C3c2ccc(Cl)nc2)cc1` (stereo partly specified): the AC50 under setting [1] is 4.47 µM [rising, single point].

For the molecule `O=C(O)Cn1c(=O)c2c3c(sc2n(Cc2ccc(F)cc2)c1=O)CCCC3`, under setting [1], the AC50 was 0.1 µM [rising, full curve, poor fit].

For the molecule `CC(C)NS(=O)(=O)c1ccc(NC(=O)CCc2ccccc2)cc1`, the AC50 under setting [1] was 29.1 µM [rising, single point].

Regarding `COc1cc2c(cc1OC)C(c1ccccc1N)=NCC2`, the AC50 under setting [1] was 0.708 µM [falling, partial curve, poor fit]. Regarding `COc1ccc(NC(=S)Nc2ccc(C)c(Cl)c2)cc1OC`, the AC50 under setting [1] was 15.8 µM [rising, single point]. As for `Cc1ccc(NC(=O)N2CCC(C(=O)NCc3ccccc3)CC2)cc1`, the AC50 under setting [1] is 16.4 µM [rising, partial curve, poor fit]. Regarding `Cc1cccc(Cl)c1NC(=O)N1CCCN(c2nc3ccc(Cl)cc3s2)CC1`, under setting [1], the AC50 is 35.5 µM [falling, single point]. On to `COCC(=O)n1nc(-c2ccccc2)nc1NCc1ccccc1`, for which, under setting [1], the AC50 was 11.2 µM [falling, single point]. The same measure, in the same setting: the figure for `Cc1ccc(Cl)cc1-n1ncc2c(NCCC3=CCCCC3)ncnc21` is 25.1 µM [falling, single point]; for `CCn1c(C)cc(/C=C2/NC(=O)N(CC(=O)Nc3cccc(C)c3)C2=O)c1C` it is 1.64 µM [rising, full curve, poor fit].

On to `C=CCOc1ccc(/C=C2\SC(N)=NC2=O)cc1OC`, for which, under setting [2], the AC50 was 14.1 µM [falling, partial curve, poor fit]. Turning to `COc1ccc2c(CC(=O)OCc3nc4ccsc4c(=O)[nH]3)coc2c1`, under setting [1], the AC50 was 29.1 µM [rising, single point]. As for `Cc1cc(C)n(-c2nc(C)nc3c2cnn3-c2ccccc2)n1`, the AC50 under setting [1] is 23.1 µM [rising, single point]. As to `COc1ccc(Nc2nnc(-c3ccc(C(=O)NCCO)cc3)c3ccccc23)cc1`, the AC50 under setting [1] was 31.6 µM [falling, single point]. Turning to `CC(=O)NC(CC(=O)OCC(=O)c1cc(C)ccc1C)c1ccccc1` (stereo unspecified), the AC50 under setting [1] is 0.146 µM [rising, partial curve, poor fit]. Take `O=C(CSc1nnc(SCc2ccccc2Cl)s1)N/N=C/c1ccc(C(=O)O)cc1`: the AC50 under setting [1] was 35.5 µM [falling, single point]. `CCc1nn(-c2ccccc2)c(=S)c2ccccc12`: the AC50 under setting [1] was 11.2 µM [rising, partial curve]. Consider `Cc1nnc(SCC(=O)Nc2nccs2)o1`, for which the AC50 under setting [2] was 35.5 µM [falling, single point]. For `O=c1oc(-c2ccccc2)nc2sc3c(c12)CCCC3`, under setting [1], the AC50 is 2.31 µM [falling, full curve]. As to `O=C(CCN1CCCCO1)N1CCCC(Nc2ccc(F)c(F)c2)C1` (stereo unspecified), the AC50 under setting [1] is 2.51 µM [rising, partial curve, poor fit]. With `CCOC(=O)CSc1nnc(-c2cccc(Br)c2)o1`, the AC50 under setting [1] is 22.4 µM [falling, single point]. Take `CC(C(=O)Nc1nc2ccccc2s1)n1cc([N+](=O)[O-])cn1` (stereo unspecified): the AC50 is, setting by setting: under setting [1], 2.51 µM [rising, partial curve]; under setting [2], 35.5 µM [rising, partial curve, poor fit]. In the case of `CNC(=S)NNC(=O)c1sccc1C`, the AC50 under setting [1] was 4.61 µM [falling, partial curve].

For `COc1cccc(/C=C/c2ccccn2)c1O`, the half-maximal activity concentration (AC50) under setting [1] is 35.5 µM [falling, single point].

Regarding `Fc1ccc(-n2cc(CNCCc3cccnc3)c(-c3ccccc3Cl)n2)cc1`, the AC50 under setting [1] is 35.5 µM [falling, single point].

For `CCOC(=O)c1cc(-c2ccc(OC)cc2)n(CCC(=O)Nc2cccc(C(C)=O)c2)c1C`, under setting [1], the AC50 is 31.6 µM [rising, single point]. On to `COc1ccc(NC(=O)C2=CN3CCS(=O)(=O)N=C3C=C2)c(OC)c1`, for which, under setting [1], the AC50 was 0.366 µM [rising, partial curve, poor fit]. `CCOc1ccc(CSc2nc(C)cc(COC)c2C#N)cc1OCC`: the AC50 under setting [1] is 0.891 µM [rising, full curve]. In the case of `O=C(COc1ccccc1)NCC(c1ccco1)N1CCN(c2ccc(F)cc2)CC1` (stereo unspecified), under setting [1], the half-maximal activity concentration (AC50) was 20.6 µM [falling, single point]. Still for that read-out and setting: the figure for `CNC(=S)N1N=C(c2ccc(OC)cc2)CC1c1ccc(Cl)cc1Cl` (stereo unspecified) is 0.562 µM [rising, full curve, poor fit]. For `CCC/C(=N\NC(=O)c1csc(C)c1C)c1cccs1`, the AC50 under setting [1] was 29.1 µM [falling, single point]. With `CC(C)n1c(=O)n(CC(=O)NCC2CCCO2)c(=O)c2c3c(sc21)COC(C)(C)C3` (stereo unspecified), the AC50 under setting [1] is 3.16 µM [rising, full curve].

For `COc1ccc(C(=O)OCC(=O)c2ccc3[nH]c(=O)[nH]c3c2)c(OC)c1OC`, the AC50 under setting [1] is 8.2 µM [rising, partial curve, poor fit]. As for `CCc1ccccc1NC(=O)c1cccc(NC(=O)/C=C/c2ccco2)c1`, the AC50 under setting [1] was 29.1 µM [falling, single point]. On the same count and under the same terms, the figure for `N=c1c2cn[nH]c2nc(SCC(=O)c2ccc(Br)cc2)n1-c1ccc(Br)cc1` is 0.708 µM [rising, full curve, poor fit].

With `CCCCn1nc(C(=O)NCC(c2cccs2)N2CCOCC2)c2ccccc2c1=O` (stereo unspecified), under setting [2], the AC50 was 14.6 µM [rising, partial curve, poor fit]. As to `NC(=O)CSc1c[nH]c2ccccc12`, the AC50 under setting [1] was 4.11 µM [rising, single point]. Still for that read-out and setting: as for `CCC(C)/C(C)=N/NC(=O)c1ccccc1OCCOc1ccccc1` (stereo unspecified), the figure is 5.01 µM [falling, partial curve]; as for `COc1cc(C(=O)NCC(=O)OCC(=O)Nc2nnc(-c3ccccc3)o2)cc(OC)c1OC`, 18.4 µM [falling, single point]; as for `COc1cc(-c2nnc(-c3cccs3)o2)cc(OC)c1OC`, 3.66 µM [rising, full curve]. Same read-out and setting: as for `COC1=C(Nc2ccccc2OC)C(=O)c2ccccc2C1=O`, the figure is 17.8 µM [falling, partial curve, poor fit]. Consider `COc1cc(C)ccc1OCCCOc1c(Cl)cccc1Cl`, for which the AC50 under setting [1] was 9.2 µM [rising, partial curve].

Consider `O=C(c1cnn(-c2ccc(Cl)cc2)c1)c1ccccc1O`, for which, under setting [1], the AC50 is 12.6 µM [falling, partial curve]. For `CC(=O)C1=C(O)C(=O)N(CCc2c[nH]c3ccccc23)C1c1cccc(O)c1` (stereo unspecified), under setting [1], the AC50 was 1.64 µM [rising, partial curve, poor fit]. Take `COc1ccccc1N1CCN(CC(O)COCCOc2ccc(Br)cc2)CC1` (stereo unspecified): the AC50 under setting [1] was 20.6 µM [falling, partial curve, poor fit]. `COc1cc([C@@H]2c3cc4c(cc3[C@@H](O)[C@H]3COC(=O)[C@H]23)OCO4)cc(OC)c1O[Si](C)(C)C(C)(C)C`: the AC50 under setting [1] is 35.5 µM [rising, single point] and the AC50 under setting [2] is 25.1 µM [falling, single point]. Consider `Fc1ccc(C2=NNC(=NCc3ccccc3)SC2)cc1F`, for which the AC50 under setting [1] is 12.6 µM [falling, partial curve, poor fit].

Take `COc1ccc(CCNC(=O)c2ccc(-c3ccc([N+](=O)[O-])cc3Cl)o2)cc1OC`: the AC50 under setting [1] was 20.6 µM [falling, single point]. Same read-out and setting: the figure for `O=C(/C=C/c1ccccc1[N+](=O)[O-])NCCN1C(=O)S/C(=C\c2ccc(F)cc2)C1=O` is 31.6 µM [rising, partial curve, poor fit].
